Record: PubChem BioAssay AID743458 (Peter MacCallum Cancer Centre, 2014)

- Test: 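Identify genes whose loss lifts vorinostat resistance in colon cancer cells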 (follow-up of hits)
- Cell system: human HCT116-VR colon cancer cells made resistant to vorinostat
- Knock-down reagent: single siRNA or pool against human genes, 25 nM per single siRNA
- Timing: about 72 h after transfection, including 24 h of drug
- Treatment: vorinostat, 2.5 µM final, for 24 h
- Measurement: 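Cell viability by fluorescence and apoptosis by caspase 3/7 luminescence under vorinostat, background-corrected, averaged across two plate copies and given as fold change versus mock transfection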
- Reading the numbers: viability relative to mock: higher = more living cells than mock; caspase activity relative to mock: higher = more apoptosis than mock
- Rule for the call: 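An siRNA counts as active if classed as reduced viability or as caspase activation, otherwise inactive; a hit class needed wells that remained healthy in the absence of drug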
The whole screen tested about 1,800 reagents; below is an unselected part. Over the whole deposit, 732 (41%) are marked active. 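Calls are per siRNA reagent; a gene was deemed confirmed only if most of its four siRNAs scored.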 Entries without a mark were called inactive. Reagents against one gene are numbered here.

For TACC1 (transforming acidic coiled-coil containing protein 1) #1, the values are viability relative to mock 0.94; caspase activity relative to mock 2.18; viability hit class no change; caspase hit class no change.
Against TACC1 (transforming acidic coiled-coil containing protein 1) #2, the values are viability relative to mock 0.98; caspase activity relative to mock 1.18; viability hit class no change; caspase hit class no change.
With knock-down of TACC1 (transforming acidic coiled-coil containing protein 1) #3, the record shows viability relative to mock 0.91; caspase activity relative to mock 1.2; viability hit class no change; caspase hit class no change.
After knock-down of TACC1 (transforming acidic coiled-coil containing protein 1) #4, the screen gave viability relative to mock 0.77 (active); caspase activity relative to mock 3.21; viability hit class no change; caspase hit class caspase activation.

Laid out differently: 2 of the entries above.
{"gene":"TACC1 (transforming acidic coiled-coil containing protein 1)","reagent":1,"viability relative to mock":0.94,"caspase activity relative to mock":2.18,"viability hit class":"no change","caspase hit class":"no change"}
{"gene":"TACC1 (transforming acidic coiled-coil containing protein 1)","reagent":2,"viability relative to mock":0.98,"caspase activity relative to mock":1.18,"viability hit class":"no change","caspase hit class":"no change"}

The list goes on:
Depletion of OTOS (otospiralin) #1 resulted in: viability relative to mock 0.81; caspase activity relative to mock 1.12; viability hit class no change; caspase hit class no change.
For OTOS (otospiralin) #2 the deposit lists viability relative to mock 0.7 (active); caspase activity relative to mock 3.46; viability hit class no change; caspase hit class caspase activation.
Depletion of OTOS (otospiralin) #3 came out at: viability relative to mock 0.9; caspase activity relative to mock 1.6; viability hit class no change; caspase hit class no change.
Against OTOS (otospiralin) #4, the entry reads viability relative to mock 0.9; caspase activity relative to mock 1.92; viability hit class no change; caspase hit class no change.
EIF4A1 (eukaryotic translation initiation factor 4A1) #1 gave viability relative to mock 0.48 (active); caspase activity relative to mock 0.64; viability hit class reduced viability; caspase hit class no change.
EIF4A1 (eukaryotic translation initiation factor 4A1) #2 gave viability relative to mock 0.55 (active); caspase activity relative to mock 1.13; viability hit class reduced viability; caspase hit class no change.
Against EIF4A1 (eukaryotic translation initiation factor 4A1) #3, the values are viability relative to mock 0.54 (active); caspase activity relative to mock 1.41; viability hit class reduced viability; caspase hit class no change.
EIF4A1 (eukaryotic translation initiation factor 4A1) #4 gave viability relative to mock 0.44 (active); caspase activity relative to mock 0.46; viability hit class reduced viability; caspase hit class no change.
